Measured values from US20200188361A1, “USE OF MITOCHONDRIAL ACTIVITY INHIBITORS FOR THE TREATMENT OF POOR PROGNOSIS ACUTE MYELOID LEUKEMIA” (UNIVERSITE DE MONTREAL, priority 2016, published 2020).
Where a name gives a salt, the structure may show the parent alone.

Columns and labels:
[1] = tested on: HOX-high AML patient cells; assay: Primary chemical screen of 60 compounds, cell dose-response viability assay (CellTiterGlo, 6 days); format: cell-based, human
Experimental: (§1) frozen AML mono-nucleated cells were thawed at 37° C. in Iscove's modified Dulbecco's medium (IMDM) containing 20% FBS and DNase I (100 μg/mL).
(§2) All powders were dissolved in DMSO and diluted in culture medium immediately before use. Final DMSO concentration in all conditions was 0.1%. The 60 compounds were purchased from various suppliers including Santa Cruz, Selleckchem, Calbiochem, AdooQ Bioscience, Cayman chemical and Synkinase.
(§3) Patient cells were seeded in 384-well plates at a density of 5,000 cells in 50 μL per well. In the initial screen, compounds were added to seeded cells in serial dilutions (10 dilutions, 1:3, starting from 10 μM or 20 μM), in duplicates. Cells treated with 0.1% DMSO without additional compound were used as negative controls. Viable cell counts per well were evaluated after 6 days of culture using the CellTiterGlo® assay (Promega®) according to the manufacturer's instruction.
(§4) Using high expression of HOXA9 and HOXA10 as a surrogate for the detection of HOX-network-high patient samples, the survival of HOX-high versus HOX-med/low specimens contacted with 60 inhibitors targeting receptor tyrosine kinases (RTK), members of the RAS and PI3K pathways, was assessed (FIG. 2A, Table 4).

[2] = tested on: HOX-med/low AML patient cells; assay: as above; format: cell-based; conditions: Homo sapiens, 144 h, mean over HOX-med/low patient specimens, 6 days culture, top concentration 10 μM or 20 μM
Experimental: as §1, §2, §3, §4

For `Cc1ccc(NC(=O)c2ccc(CN3CCN(C)CC3)cc2)cc1Nc1nccc(-c2cccnc2)n1` [Imatinib Mesylate], the EC50 ([1]; Homo sapiens, 144 h, primary screen, mean over HOX-high patient specimens, 6 days culture, top concentration 10 μM or 20 μM) was 7.93 µM, the “FOLD CHANGE High/Med-low” value ([1]; ratio of mean EC50 HOX-high to mean EC50 HOX-med/low) was 1.1 and the EC50 [2] was 7.28 µM.
